Source: patent US7176011B2, “Lipid cleavage enzyme” (Heidelberg Pharma AG, priority 1994, dated 2007)
At least one structure is not confirmed: it was looked up by name or label, or the drawing left a doubt.

Tested on: LCE
Experiment: Influence of enzyme inhibitors or activators on the LCE activity, kidney (Balb/c) membrane fraction
Assay type: biochemical, Balb/c mice

SMILES: COC[C@H]1OC(=O)c2coc3c2[C@@]1(C)C1=C(C3=O)[C@@H]2CCC(=O)[C@@]2(C)C[C@H]1OC(C)=O [wortmannin]
- Influence on LCE activity: none
